The test has as its target T1, dopamine D-1 receptor (rat striatal membranes) (Rattus norvegicus, UniProt P18901).
T1 construct: Striatal tissues were excised, pooled and homogenized; from tissue; host or cells: striatum of male Sprague-Dawley rats
Briefly: Competition: inhibition of [^125 I]TISCH binding to rat striatal membranes. Particulars: read-out: ki (mean + SEM). The method, then:
Male Sprague-Dawley rats (200-250g) were decapitated, and the brains were removed and placed in ice. Striatal tissues were excised, pooled and homogenized in 100 volumes(w/v) of ice-cold Tris-HCl buffer (50 mM), pH 7.4. The homogenates were centrifuged at 20,000×g for 20 min. The resultant pellets were rehomogenized in the same buffer and centrifuged again. The final pellets were resuspended in assay buffer containing: 50 mM Tris buffer pH 7.4, 120 mM NaCl, 5 mM KCl, 2mM CaCl2 and 1 mM MgCl2.
The binding assays were performed by incubating 50 μl of tissue preparations containing 40-60μg of protein with appropriate amounts of [^125 l]FISCH ligand and competitors in a total volume of 0.2 ml of the assay buffer. After an incubation period of 20 min at 37° C. (with stirring), the samples were rapidly filtered in the cell harvester (Brandel M-24R) under vacuum through Whatman GF/B glass fiber filters pretreated with 0.2% protamine sulfate and washed with 3×5ml of cold (4° C.) 50 mM Tris-HCl buffer, pH 7.4. […] The filters were counted in a gamma counter (Beckman 5500) at an efficiency of 70%.
Both Scatchard and competition experiments were analyzed using the iterative non-linear least squares curve-fitting program LIGAND.

Protein sequences, listed by entry. Tags and fused reporters are not part of them.
UniProt P18901, whole entry: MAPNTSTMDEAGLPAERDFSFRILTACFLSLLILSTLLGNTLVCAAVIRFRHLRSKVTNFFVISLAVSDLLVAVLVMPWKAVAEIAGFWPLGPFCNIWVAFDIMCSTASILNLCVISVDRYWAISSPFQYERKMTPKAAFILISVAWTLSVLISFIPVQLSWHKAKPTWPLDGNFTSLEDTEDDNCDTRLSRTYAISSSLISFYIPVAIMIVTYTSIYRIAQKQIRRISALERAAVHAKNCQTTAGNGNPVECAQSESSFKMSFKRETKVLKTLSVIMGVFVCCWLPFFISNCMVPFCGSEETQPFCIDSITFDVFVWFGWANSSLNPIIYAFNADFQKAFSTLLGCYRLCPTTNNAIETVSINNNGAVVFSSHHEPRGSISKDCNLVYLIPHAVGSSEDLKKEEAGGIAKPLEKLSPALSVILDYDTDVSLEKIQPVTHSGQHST

Molecules are shown by their SMILES.

On to `CC(C)NC[C@H](O)COc1cccc2ccccc12` (racemic) [Propanolol, reference compound], for which the Ki (commonly the equilibrium dissociation constant of an inhibitor or competing ligand from its target) was over 3 µM.

(Values after patent US5130117A, “Radiohalogenated benzazepine derivatives and method of imaging dopamine receptors therewith” (Trustees of the University of Pennsylvania, priority 1991, dated 1992).)
